Values quoted from earlier work in patent publication US11154501B2, “Method of enhancing the efficacy and stability of ingredients in suspensions” (Nanophase Technologies Corporation, priority 2019, dated 2021).

Conditions: in neutral water

O=c1c(O)c(-c2ccc(O)c(O)c2)oc2cc(O)cc(O)c12 [quercetin]
solubility (in words): very poorly soluble
